First the molecules themselves.
T1: Ska1-TAP (S. cerevisiae) (UniProt P36103)
T1 sequence: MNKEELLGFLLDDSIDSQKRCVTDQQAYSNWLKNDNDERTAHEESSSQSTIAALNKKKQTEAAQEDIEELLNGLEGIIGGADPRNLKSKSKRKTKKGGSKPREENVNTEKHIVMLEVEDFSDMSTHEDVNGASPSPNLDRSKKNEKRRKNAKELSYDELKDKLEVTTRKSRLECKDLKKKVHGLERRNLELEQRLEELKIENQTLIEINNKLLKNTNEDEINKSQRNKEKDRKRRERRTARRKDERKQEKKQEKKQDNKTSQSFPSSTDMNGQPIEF

T2: Ski3-TAP (S. cerevisiae) (UniProt P17883)
T2 sequence: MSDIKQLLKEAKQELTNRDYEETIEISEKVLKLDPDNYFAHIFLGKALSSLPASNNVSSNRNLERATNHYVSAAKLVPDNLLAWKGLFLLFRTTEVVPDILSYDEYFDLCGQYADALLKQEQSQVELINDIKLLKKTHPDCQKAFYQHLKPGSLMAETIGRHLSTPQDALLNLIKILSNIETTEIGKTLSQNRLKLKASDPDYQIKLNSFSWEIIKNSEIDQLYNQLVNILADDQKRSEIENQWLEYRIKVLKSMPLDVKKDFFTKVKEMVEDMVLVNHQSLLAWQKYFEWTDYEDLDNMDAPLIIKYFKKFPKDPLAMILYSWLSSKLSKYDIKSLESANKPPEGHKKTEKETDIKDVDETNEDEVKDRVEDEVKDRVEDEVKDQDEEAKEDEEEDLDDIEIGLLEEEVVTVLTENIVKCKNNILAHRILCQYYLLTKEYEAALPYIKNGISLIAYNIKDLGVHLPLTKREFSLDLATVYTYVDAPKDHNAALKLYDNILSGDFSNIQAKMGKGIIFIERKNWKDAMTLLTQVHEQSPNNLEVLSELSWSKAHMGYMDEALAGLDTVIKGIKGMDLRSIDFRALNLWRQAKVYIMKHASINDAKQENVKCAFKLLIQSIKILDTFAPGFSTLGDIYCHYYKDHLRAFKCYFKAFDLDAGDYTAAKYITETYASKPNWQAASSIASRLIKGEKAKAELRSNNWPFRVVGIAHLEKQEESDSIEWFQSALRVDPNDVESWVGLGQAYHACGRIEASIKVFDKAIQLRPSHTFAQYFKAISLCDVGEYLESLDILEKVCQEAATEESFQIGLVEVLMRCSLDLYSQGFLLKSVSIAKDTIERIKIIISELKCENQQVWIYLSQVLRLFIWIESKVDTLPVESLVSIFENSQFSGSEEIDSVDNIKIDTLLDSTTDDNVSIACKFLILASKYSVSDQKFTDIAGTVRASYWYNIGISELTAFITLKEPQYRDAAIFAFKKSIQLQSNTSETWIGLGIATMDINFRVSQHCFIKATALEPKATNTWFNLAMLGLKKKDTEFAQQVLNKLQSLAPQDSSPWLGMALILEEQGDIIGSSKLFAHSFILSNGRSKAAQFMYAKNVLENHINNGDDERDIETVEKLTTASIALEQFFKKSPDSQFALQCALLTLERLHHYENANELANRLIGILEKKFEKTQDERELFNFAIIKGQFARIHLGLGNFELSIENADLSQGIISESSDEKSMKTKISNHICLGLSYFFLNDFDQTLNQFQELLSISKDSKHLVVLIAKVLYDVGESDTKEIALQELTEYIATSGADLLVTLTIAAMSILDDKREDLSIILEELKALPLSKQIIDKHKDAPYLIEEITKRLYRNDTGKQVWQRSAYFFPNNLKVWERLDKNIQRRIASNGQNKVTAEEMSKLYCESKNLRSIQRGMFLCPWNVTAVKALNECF

B1: Ski8 (protein, UniProt Q02793 1-397)
chain: MSKVFIATANAGKAHDADIFSVSACNSFTVSCSGDGYLKVWDNKLLDNENPKDKSYSHFVHKSGLHHVDVLQAIERDAFELCLVATTSFSGDLLFYRITREDETKKVIFEKLDLLDSDMKKHSFWALKWGASNDRLLSHRLVATDVKGTTYIWKFHPFADESNSLTLNWSPTLELQGTVESPMTPSQFATSVDISERGLIATGFNNGTVQISELSTLRPLYNFESQHSMINNSNSIRSVKFSPQGSLLAIAHDSNSFGCITLYETEFGERIGSLSVPTHSSQASLGEFAHSSWVMSLSFNDSGETLCSAGWDGKLRFWDVKTKERITTLNMHCDDIEIEEDILAVDEHGDSLAEPGVFDVKFLKKGWRSGMGADLNESLCCVCLDRSIRWFREAGGK
B2: Ski7 (protein, UniProt Q08491 1-747)
chain: MSLLEQLARKRIEKSKGLLSADQSHSTSKSASLLERLHKNRETKDNNAETKRKDLKTLLAKDKVKRSDFTPNQHSVSLSLKLSALKKSNSDLEKQGKSVTLDSKENELPTKRKSPDDKLNLEESWKAIKEMNHYCFLKNDPCINQTDDFAFTNFIIKDKKNSLSTSIPLSSQNSSFLSLKKHNNELLGIFVPCNLPKTTRKVAIENFNRPSPDDIIQSAQLNAFNEKLENLNIKSVPKAEKKEPINLQTPPTESIDIHSFIATHPLNLTCLFLGDTNAGKSTLLGHLLYDLNEISMSSMRELQKKSSNLDPSSSNSFKVILDNTKTERENGFSMFKKVIQVENDLLPPSSTLTLIDTPGSIKYFNKETLNSILTFDPEVYVLVIDCNYDSWEKSLDGPNNQIYEILKVISYLNKNSACKKHLIILLNKADLISWDKHRLEMIQSELNYVLKENFQWTDAEFQFIPCSGLLGSNLNKTENITKSKYKSEFDSINYVPEWYEGPTFFSQLYLLVEHNMNKIETTLEEPFVGTILQSSVLQPIAEINYVSLKVLINSGYIQSGQTIEIHTQYEDFHYYGIVSRMKNSKQILETNTKNNISVGLNPDILEVLVKIHNTEDFTKKQFHIRKGDIIIHSRKTNTLSPNLPNTLKLLALRLIKLSIQTHALSDPVDLGSELLLYHNLTHNAVKLVKILGTNDISINPNQSLIVEVEIIEPDFALNVIDSKYITNNIVLTSIDHKVIAVGRIACQ
B3: Ski3 (protein, UniProt P17883 1-1432)
chain: T2 sequence
B4: Ski2 (protein, UniProt P35207 1-1287)
chain: MSEGFSSSSIQELYQSLKEITNNADVELFEDRITKLDFESTDEPKHANDIIKDRFLRPSNALPWSLLDMVQDVPHTSSPEDCSGKLDYKELLKVPDPINRTSYQFKRTGLEGKISGYKEEVDLKEVANANASNSLSITRSINHNQNSVRGSTAQLPFTPGGIPMKSVKTDSEQNGSSTMANATKLLHKDGQGLFDIPEGMNRGIKPMDSPAENEDQNGQFKELKQLNEIDNELDIRIEANEAKLKEEEKSAKSISEEIMEEATEETTADNADDAEIDELLPIGIDFGRTKPVSKSVPVKKEWAHVVDLNHKIENFDELIPNPARSWPFELDTFQKEAVYHLEQGDSVFVAAHTSAGKTVVAEYAIAMAHRNMTKTIYTSPIKALSNQKFRDFKETFDDVNIGLITGDVQINPDANCLIMTTEILRSMLYRGADLIRDVEFVIFDEVHYVNDQDRGVVWEEVIIMLPQHVKFILLSATVPNTYEFANWIGRTKQKNIYVISTPKRPVPLEINIWAKKELIPVINQNSEFLEANFRKHKEILNGESAKGAPSKTDNGRGGSTARGGRGGSNTRDGRGGRGNSTRGGANRGGSRGAGAIGSNKRKFFTQDGPSKKTWPEIVNYLRKRELLPMVVFVFSKKRCEEYADWLEGINFCNNKEKSQIHMFIEKSITRLKKEDRDLPQILKTRSLLERGIAVHHGGLLPIVKELIEILFSKGFIKVLFATETFAMGLNLPTRTVIFSSIRKHDGNGLRELTPGEFTQMAGRAGRRGLDSTGTVIVMAYNSPLSIATFKEVTMGVPTRLQSQFRLTYNMILNLLRIEALRVEEMIKYSFSENAKETLQPEHEKQIKVLQEELQTIEYKSCEICDNDIEKFLELMLAYKEATVNLMQEMVKSPSILHILKEGRLVAFRDPNDCLKLGFVFKVSLKDAVCVIMTFTKPYKLPNGEPNHLIYFPKADGYRRRNFPKFQKTDFYMEEVPVTAIEVITKRKFAAPLGKVIKKDVAALNEFNAETNNILDGKTLKEAINIEKQGLKIHQILLDRTNIRDEIFKLKSIKCPNLSQHIVPKFKAHVIKKKIEELYHLMSDQNLSLLPDYEKRLAVLKDTEFIDQNHNVLLKGRVACEINSGYELVLTELILDNFLGSFEPEEIVALLSVFVYEGKTREEEPPIVTPRLAKGKQRIEEIYKKMLCVFNTHQIPLTQDEAEFLDRKRFAMMNVVYEWARGLSFKEIMEMSPEAEGTVVRVITWLDEICREVKTASIIIGNSTLHMKMSRAQELIKRDIVFAASLYL

Results are given in words; binding and its absence hold for the method and conditions named. In cells and extracts the contact can be indirect. These calls come from enrichment with a bait or labelling near it, and not all partners need be listed.

In one test the target is T1, Ska1-TAP (S. cerevisiae). Description: affinity purification with mass spectrometry.
For the molecule B1, the binding result is listed as “binds”. With B2, the binding entry was “binds”. Take B3: the binding result is given as “binds”. Same read-out and setting: under B4 stands “binds”.

The next test has as its target T2, Ski3-TAP (S. cerevisiae). Description: affinity purification with mass spectrometry.
For the molecule B2, the binding entry is listed as “binds”. As for B4, the binding entry is reported as “binds”.

Source of the values: publication doi:10.1101/409490.
